# Assay results from patent US20190225704A1.
# Results are given in words; binding and its absence hold for the method and conditions named. Some entries that bind do so weakly or less than the wild type. For some assays here: Tags and fused reporters may be left off the sequences shown.
# T1: TMEM132A forcibly expressed on DLD-1 cells (TMEM132A gene, Genbank Accession No.: NM_017870.3, with a Flag sequence) (human) (UniProt Q24JP5)
# T1 sequence (looked up): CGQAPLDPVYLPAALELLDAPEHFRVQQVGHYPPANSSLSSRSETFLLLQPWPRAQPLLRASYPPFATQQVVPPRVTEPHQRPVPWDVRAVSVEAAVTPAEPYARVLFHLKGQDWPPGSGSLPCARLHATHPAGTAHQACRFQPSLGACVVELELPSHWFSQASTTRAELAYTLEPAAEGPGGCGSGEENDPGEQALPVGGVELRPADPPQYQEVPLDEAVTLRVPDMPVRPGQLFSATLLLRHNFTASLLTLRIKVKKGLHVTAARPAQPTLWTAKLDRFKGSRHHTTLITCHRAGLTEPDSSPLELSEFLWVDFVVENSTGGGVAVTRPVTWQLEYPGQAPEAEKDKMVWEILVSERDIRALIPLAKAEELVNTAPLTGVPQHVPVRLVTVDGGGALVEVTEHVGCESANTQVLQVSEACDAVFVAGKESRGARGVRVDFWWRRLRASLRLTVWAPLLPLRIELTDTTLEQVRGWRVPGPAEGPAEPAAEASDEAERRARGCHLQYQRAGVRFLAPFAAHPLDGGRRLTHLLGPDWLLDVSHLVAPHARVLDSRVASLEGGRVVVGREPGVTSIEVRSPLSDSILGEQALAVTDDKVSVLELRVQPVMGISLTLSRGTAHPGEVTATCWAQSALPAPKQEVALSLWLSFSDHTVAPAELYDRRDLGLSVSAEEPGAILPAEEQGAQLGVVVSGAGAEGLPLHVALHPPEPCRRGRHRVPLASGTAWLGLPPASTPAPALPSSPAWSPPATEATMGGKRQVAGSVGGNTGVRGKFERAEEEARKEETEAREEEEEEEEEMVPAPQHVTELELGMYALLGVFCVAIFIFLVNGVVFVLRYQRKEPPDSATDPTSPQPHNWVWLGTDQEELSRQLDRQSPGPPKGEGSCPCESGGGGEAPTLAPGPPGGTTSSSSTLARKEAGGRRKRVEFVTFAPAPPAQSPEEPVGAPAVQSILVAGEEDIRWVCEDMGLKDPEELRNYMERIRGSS
# T2: TMEM132A on human colorectal cancer cell line DLD-1 (endogenous) (human) (UniProt Q24JP5)
# T2 sequence (looked up): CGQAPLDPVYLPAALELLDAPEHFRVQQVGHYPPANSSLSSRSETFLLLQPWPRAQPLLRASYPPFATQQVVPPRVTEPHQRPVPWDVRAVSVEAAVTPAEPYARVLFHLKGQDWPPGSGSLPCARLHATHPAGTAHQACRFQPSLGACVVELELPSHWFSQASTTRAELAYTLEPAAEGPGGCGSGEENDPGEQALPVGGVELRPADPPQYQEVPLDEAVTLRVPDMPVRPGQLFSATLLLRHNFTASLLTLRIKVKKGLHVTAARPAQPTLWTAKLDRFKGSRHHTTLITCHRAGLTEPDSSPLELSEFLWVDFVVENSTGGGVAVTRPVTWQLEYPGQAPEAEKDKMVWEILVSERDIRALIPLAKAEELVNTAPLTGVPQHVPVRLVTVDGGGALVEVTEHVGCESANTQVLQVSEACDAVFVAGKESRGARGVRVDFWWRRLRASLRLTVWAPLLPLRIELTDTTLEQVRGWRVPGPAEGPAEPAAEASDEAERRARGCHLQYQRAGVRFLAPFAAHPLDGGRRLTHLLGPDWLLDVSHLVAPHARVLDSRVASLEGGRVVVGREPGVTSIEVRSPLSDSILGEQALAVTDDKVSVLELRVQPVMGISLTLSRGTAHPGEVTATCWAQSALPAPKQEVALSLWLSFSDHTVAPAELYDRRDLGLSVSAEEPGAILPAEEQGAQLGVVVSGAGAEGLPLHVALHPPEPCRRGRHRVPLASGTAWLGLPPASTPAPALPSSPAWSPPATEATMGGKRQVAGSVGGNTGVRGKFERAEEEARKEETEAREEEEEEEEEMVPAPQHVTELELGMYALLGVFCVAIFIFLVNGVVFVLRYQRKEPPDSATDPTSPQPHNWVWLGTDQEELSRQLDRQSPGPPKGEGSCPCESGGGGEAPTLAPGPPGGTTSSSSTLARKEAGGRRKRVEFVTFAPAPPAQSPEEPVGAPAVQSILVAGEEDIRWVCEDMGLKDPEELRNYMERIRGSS
# B1: T6-1475 antibody (antibody, V domains shown)
# VH: DVQLQESGPGLVKPSQSLSLTCSVTGYSITSDYYWNWIRQFPGNKLEWMGYIRYDGYNAYNPSLKSRISITRDTSKNQFLLKLKSVTTEDTATYFCARNDYDGYYFDNWGQGTTLTVS
# VL: DIVMSQSPSSLAVSVGEKVTMSCKSSQSLLYSTNQKNYLAWYQQKPGQSPQLLIYWASTRESGVPDRFTGSGSGTDFTLTISSVSAEDLAVYYCQQYYTNPYTFGGGAKLEIK
# Tests used:
# [1] = biological target: T1, TMEM132A forcibly expressed on DLD-1 cells (TMEM132A gene, Genbank Accession No.: NM_017870.3, with a Flag sequence) (human); assay: flow cytometry, hybridoma culture supernatant (selection)
# [2] = biological target: T2, TMEM132A on human colorectal cancer cell line DLD-1 (endogenous) (human); assay: as above
binder,measurement,setting,value
B1,binding,[1],binds
same,binding,[2],binds
